Source: publication PMC4682037, “Signal transduction in light–oxygen–voltage receptors lacking the adduct-forming cysteine residue” (Nature Communications, 2015)
Results are given in words; binding and its absence hold for the method and conditions named. Blank lines part the entries; values can stand above or below the molecule they belong to.

Key:
[1] = target: VVD-III:Q182L (Neurospora) (UniProt Q9C3Y6); test: SEC; analytical SEC, Superdex 75 or 200 10/300 GL; light-adapted (NSQ) sample obtained by irradiation on ice, uncovered column with constant external illumination; both purified
[2] = target: VVD-III:Q182L (Neurospora) (UniProt Q9C3Y6); test: SEC; analytical SEC, Superdex 75 or 200 10/300 GL; dark-adapted (oxidized quinone) sample, foil-covered column; both purified
[3] = target: VVD-III:Y40E (Neurospora) (UniProt Q9C3Y6); test: SEC; analytical SEC, Superdex 75 or 200 10/300 GL; light-adapted (NSQ) sample obtained by irradiation on ice, uncovered column with constant external illumination; both purified
[4] = target: VVD-III:Y40E (Neurospora) (UniProt Q9C3Y6); test: SEC; analytical SEC, Superdex 75 or 200 10/300 GL; dark-adapted (oxidized quinone) sample, foil-covered column; both purified
[5] = target: VVD-III (VVD Δ36, C108A:M135I:M165I) (Neurospora) (UniProt Q9C3Y6); test: condition: only dark-adapted, oxidized quinone state; SEC; analytical SEC, Superdex 75 or 200 10/300 GL; dark-adapted (oxidized quinone) sample, foil-covered column; both purified
[6] = target: VVD-III (VVD Δ36, C108A:M135I:M165I) (Neurospora) (UniProt Q9C3Y6); test: SEC; VVD-III as purified from E. coli passed through a SEC column; flavin redox states separate; yellow-coloured, oxidized protein; both purified

- binding [1]: no binding
- binding [2]: no binding
Molecule: VVD-III:Q182L (from UniProt Q9C3Y6 37-186) (domain or fragment)

- binding [3]: no binding
- binding [4]: no binding
Molecule: VVD-III:Y40E (from UniProt Q9C3Y6 37-186) (domain or fragment)

- binding [5]: no binding
B1: VVD-III (VVD Δ36, C108A:M135I:M165I) (domain or fragment, Neurospora, UniProt Q9C3Y6 37-186, looked up)
chain: HTLYAPGGYDIMGYLIQIMNRPNPQVELGPVDTSCALILCDLKQKDTPIVYASEAFLYMTGYSNAEVLGRNARFLQSPDGMVKPKSTRKYVDSNTINTIRKAIDRNAEVQVEVVNFKKNGQRFVNFLTIIPVRDETGEYRYSMGFQCETE
notes: Vivid (VVD), LOV photoreceptor of Neurospora; lacks the first 36 N-terminal residues; C108A, M135I, M165I; Dark-adapted: oxidized quinone; light-adapted: neutral semiquinone (NSQ); also called Vivid; source: E. coli BL21(DE3), purified (Ni:NTA, SEC)
- binding [6]: no binding (condition: oxidized flavin (quinone) state)
